One experiment has as its target Spt16ΔC (yeast) (UniProt P32558). In words: co-purification.
Experiment [1] addresses Spt16 (Suppressor of Ty), larger subunit of yeast FACT (yeast) (UniProt P32558). Nature of the experiment: co-purification.

Amino acid sequences for entries named in this document (tags omitted). A change or cut given only in a name is not applied to a line headed by its entry. Residues count along the entry.
UniProt P32558: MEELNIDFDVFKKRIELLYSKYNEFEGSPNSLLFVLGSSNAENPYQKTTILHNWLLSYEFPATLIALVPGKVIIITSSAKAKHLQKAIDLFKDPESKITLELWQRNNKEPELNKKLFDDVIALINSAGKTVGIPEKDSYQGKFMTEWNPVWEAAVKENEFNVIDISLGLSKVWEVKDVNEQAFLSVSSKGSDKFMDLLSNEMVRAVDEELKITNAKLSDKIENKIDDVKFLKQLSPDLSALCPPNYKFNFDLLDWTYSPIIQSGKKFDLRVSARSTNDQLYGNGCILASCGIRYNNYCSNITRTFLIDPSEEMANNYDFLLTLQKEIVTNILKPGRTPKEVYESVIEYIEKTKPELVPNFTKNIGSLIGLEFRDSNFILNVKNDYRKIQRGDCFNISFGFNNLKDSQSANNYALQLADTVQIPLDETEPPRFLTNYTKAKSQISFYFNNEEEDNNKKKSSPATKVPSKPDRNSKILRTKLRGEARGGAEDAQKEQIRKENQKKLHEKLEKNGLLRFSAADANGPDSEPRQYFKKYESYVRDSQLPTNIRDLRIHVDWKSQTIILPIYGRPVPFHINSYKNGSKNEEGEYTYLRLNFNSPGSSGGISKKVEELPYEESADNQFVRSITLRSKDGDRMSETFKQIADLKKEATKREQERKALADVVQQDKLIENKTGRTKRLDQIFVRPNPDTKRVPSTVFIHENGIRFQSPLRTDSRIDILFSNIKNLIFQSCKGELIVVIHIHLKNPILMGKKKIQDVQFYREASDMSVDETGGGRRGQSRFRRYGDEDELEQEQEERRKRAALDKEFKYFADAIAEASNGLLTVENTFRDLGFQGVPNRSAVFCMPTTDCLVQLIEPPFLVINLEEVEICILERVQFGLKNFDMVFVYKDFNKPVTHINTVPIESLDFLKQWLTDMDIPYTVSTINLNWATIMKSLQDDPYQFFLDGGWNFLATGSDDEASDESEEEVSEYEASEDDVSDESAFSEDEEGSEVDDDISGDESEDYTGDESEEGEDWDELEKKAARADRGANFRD
Spt16ΔC: residues 1-958 of P32558
UniProt Q04636: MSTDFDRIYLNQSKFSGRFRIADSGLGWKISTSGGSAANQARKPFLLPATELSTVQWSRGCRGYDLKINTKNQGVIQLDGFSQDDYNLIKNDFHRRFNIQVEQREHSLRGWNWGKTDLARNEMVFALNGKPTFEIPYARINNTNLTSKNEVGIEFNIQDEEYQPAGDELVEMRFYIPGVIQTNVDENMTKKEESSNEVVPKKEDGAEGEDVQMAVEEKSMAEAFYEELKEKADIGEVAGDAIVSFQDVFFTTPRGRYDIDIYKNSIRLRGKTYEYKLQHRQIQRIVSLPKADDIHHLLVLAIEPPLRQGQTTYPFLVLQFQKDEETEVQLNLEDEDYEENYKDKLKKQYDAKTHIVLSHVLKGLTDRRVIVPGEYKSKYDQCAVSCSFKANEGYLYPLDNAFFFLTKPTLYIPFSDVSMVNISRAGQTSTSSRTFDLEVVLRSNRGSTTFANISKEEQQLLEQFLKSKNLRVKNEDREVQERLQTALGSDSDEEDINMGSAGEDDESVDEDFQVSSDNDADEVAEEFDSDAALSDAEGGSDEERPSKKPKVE

Results are given in words; binding and its absence hold for the method and conditions named. Some entries that bind do so weakly or less than the wild type.

In the case of “Pob3 (Polymerase One Binding), smaller subunit of yeast FACT (from UniProt Q04636 1-552)”, the binding result (with Spt16ΔC (yeast); in experiment [1]) was “binds” throughout.

As to “Pob3ΔC (from UniProt Q04636 1-477) (domain or fragment)”, the binding result (with Spt16ΔC (yeast); in experiment [1]) was “binds” each time.

Source of the values: doi:10.1101/2021.07.13.452273.
